34 molecules from PubChem BioAssay AID1487 (National Center for Advancing Translational Sciences (NCATS), 2009) can be followed below.

Some of the results follow. Shown are side measurements of this screen, not its main read-out; they come without a call. Most of these compounds were active or inconclusive in the main read-out, so they are no random draw. Words in brackets tell the shape of the fitted curve; partial curves, single points and poor fits give uncertain potencies.

This experiment is described as follows: qHTS Assay for Modulators of Lamin A Splicing. The following applies: HeLa LMNA splicing GFP/RFP minigene ratio, 48 h. In short, it runs like this:
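Read-out is the ratio of GFP to DsRed2 object intensity, acquired by 488 nm laser-scanning cytometry on HeLa lamin A-EGFP minigene reporter cells. Compound incubation 48 hrs at 37 °C in Opti-MEM with 2% FBS; DMSO 0.5% final.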

Setting [1] is: measured here: GFP splicing reporter channel.
The mark [2] stands for this setting: measured here: RFP viability control channel.

In general, AC50 refers to the concentration at which the activity in the assay is half-maximal. In the case of `COC(=O)CSc1nc(-c2ccccc2)cc(-c2ccco2)c1C#N`, under setting [1], the AC50 is 35.5 µM [rising, single point].

With `Cc1ccc(-n2nnnc2SCC(=O)NC(=O)Nc2ccc3c(c2)OCCO3)cc1`, the AC50 under setting [1] was 17.8 µM [rising, single point]. On to `CCN(CC)S(=O)(=O)c1ccc2oc(C(=O)NCc3ccc(C)cc3)c(C)c2c1`, for which the AC50 under setting [2] is 14.1 µM [rising, single point]. Still for that read-out and setting: with `COC(=O)c1cc(NC(=O)Nc2ccccc2)ccc1Cl` the figure was 3.55 µM [rising, full curve, poor fit]; with `CCn1cnc2sc(C(=O)N(Cc3ccc(N(C)C)cc3)Cc3ccco3)c(C)c2c1=O`, 8.91 µM [rising, partial curve]. `Cc1nn(-c2ccccc2)c(C)c1C(=O)OCC(=O)c1c(N)n(CC(C)C)c(=O)n(C)c1=O`: the AC50 runs as follows: under setting [1], 1.41 µM [rising, partial curve]; under setting [2], 5.62 µM [rising, partial curve]. On to `O=C(O)CCN1CC2([N+](=O)[O-])CC=C(OCCO)C([N+](=O)[O-])(C1)C2` (stereo unspecified), for which the AC50 under setting [1] was 2.82 µM [rising, partial curve, poor fit] and the half-maximal activity concentration (AC50) under setting [2] is 3.55 µM [rising, partial curve, poor fit]. Turning to `COc1ccc(C(=O)Nc2ccc(-c3ccc(C)o3)cc2)cc1S(=O)(=O)N1CCOCC1`, under setting [2], the AC50 was 2.24 µM [rising, full curve, poor fit]. On the same count and under the same terms, the result for `COc1cccc(C(=O)Nc2ccc3nc(SCC(=O)N4CCOCC4)sc3c2)c1` reads 31.6 µM [rising, single point].

As to `Cn1c(=O)n(C)c2cc(NS(=O)(=O)c3ccc(F)cc3)ccc21`, the AC50 under setting [1] was 5.62 µM [falling, partial curve, poor fit]. In the case of `CCN1CCN(C(C)C(=O)Nc2c(C)n(C)n(-c3ccccc3)c2=O)CC1` (stereo unspecified), under setting [2], the AC50 is 0.0355 µM [rising, full curve, poor fit].

As for `Cc1ccc(S(=O)(=O)NC(=O)Nc2cc(C)ccc2F)cc1`, the AC50 under setting [2] is 0.178 µM [falling, full curve, poor fit]. In the case of `CCCn1c2c(c(O)c(C(=O)Nc3ncccc3O)c1=O)CCCC2`, the half-maximal activity concentration (AC50) under setting [2] is 15.8 µM [rising, partial curve, poor fit].

In the case of `CCN(CC)c1ccc(/C=N/NC(=O)C(O)(c2ccccc2)c2ccccc2)o1`, the AC50 was 35.5 µM [rising, single point] under setting [1] and 35.5 µM [rising, single point] under setting [2]. Take `CSCCC(NS(=O)(=O)c1ccc2c(c1)oc(=O)n2C)C(=O)N1CCN(c2cc(C)ccc2C)CC1` (stereo unspecified): the AC50 by setting is: under setting [1], 12.6 µM [falling, partial curve, poor fit]; under setting [2], 11.2 µM [falling, partial curve, poor fit].

Take `COc1ccc(C2CC(=O)NC(NC(=O)c3ccc(Br)cc3)=N2)c(OC)c1OC` (stereo unspecified): the AC50 under setting [1] was 0.1 µM [falling, partial curve] and the AC50 under setting [2] was 0.000708 µM [falling, full curve].

Consider `Cc1cccc(-n2nnnc2SCC(=O)c2cc(C)n(CC3CCCO3)c2C)c1` (stereo unspecified), for which the AC50 under setting [2] was 12.6 µM [rising, single point]. Same read-out and setting: the result for `Cc1ccccc1CS(=O)(=O)c1nnc([C@H](CC(C)C)NC(=O)OC(C)(C)C)o1` reads 35.5 µM [rising, single point]. Turning to `COc1ccc(-c2nc(C)sc2CC(=O)O)cc1OC`, the AC50 reads like this: under setting [1], 0.1 µM [rising, full curve, poor fit]; under setting [2], 0.126 µM [rising, single point]. In the case of `CC(C)OC(=O)CSc1nc(N)c(C#N)c(-c2cccs2)c1C#N`, the AC50 is 11.2 µM [rising, partial curve, poor fit] under setting [1] and 11.2 µM [rising, partial curve, poor fit] under setting [2]. With `O=C(/C=C\c1ccc2c(c1)OCO2)NC1CC(=O)N(c2ccc(Cl)cc2)C1` (stereo unspecified), the AC50 under setting [1] is 12.6 µM [rising, partial curve]. `Cn1cc([N+](=O)[O-])c(C(=O)Nc2cc(Oc3ccccc3)cc([N+](=O)[O-])c2)n1`: the AC50 is, setting by setting: under setting [1], 35.5 µM [falling, single point]; under setting [2], 0.2 µM [rising, full curve, poor fit]. As to `O=C(Nc1ccc(N2CCCC2)c(Cl)c1)c1cccc(-c2cc3ccccc3oc2=O)c1`, under setting [2], the AC50 is 0.00891 µM [rising, full curve, poor fit]. On to `CCN(Cc1ccccc1)C(=O)CCc1nc(-c2ccc(C)cc2)no1`, for which the AC50 is, setting by setting: under setting [1], 35.5 µM [rising, single point]; under setting [2], 35.5 µM [rising, single point]. Regarding `CCN(CC)S(=O)(=O)c1cccc(C(=O)N[C@H](C(=O)Nc2nc3ccc(F)cc3s2)C(C)C)c1`, the AC50 under setting [2] was 5.01 µM [rising, partial curve]. Turning to `Cc1cc(NC(=O)COC(=O)c2ccccc2S(=O)(=O)N(C)c2ccccc2)no1`, the AC50 under setting [2] is 14.1 µM [rising, partial curve, poor fit]. In the case of `O=S(=O)(Nc1ccc(N2CCCCC2)cc1)c1ccc(F)c(F)c1`, the half-maximal activity concentration (AC50) is, setting by setting: under setting [1], 10 µM [rising, partial curve, poor fit]; under setting [2], 15.8 µM [rising, partial curve].

Take `Cc1ccnc2nc(C(=O)Nc3nc(-c4ccccn4)cs3)nn12`: the AC50 under setting [2] was 35.5 µM [falling, single point].

Take `O=C(C1CCCN(c2ncccn2)C1)N1CCc2ccccc21` (stereo unspecified): the AC50 under setting [2] is 31.6 µM [rising, single point]. For `O=S(=O)(c1ccc(Cl)nc1)N1CCCc2ccccc21`, under setting [2], the AC50 was 11.2 µM [rising, single point].

On to `CCCCc1nn2c(=O)cc(COC(=O)c3ccc(NC(=O)CCc4ccccc4)cc3)nc2s1`, for which the AC50 was 0.0794 µM [rising, full curve, poor fit] under setting [1] and 0.112 µM [rising, full curve, poor fit] under setting [2]. For the molecule `O=C1[O][Bi][O]c2ccccc21`, the AC50 under setting [2] was 0.0501 µM [rising, full curve, poor fit].

Regarding `CCn1c(COc2ccc(C)cc2)nnc1SCC(=O)C(C)(C)C`, the half-maximal activity concentration (AC50) is, setting by setting: under setting [1], 35.5 µM [rising, single point]; under setting [2], 35.5 µM [rising, single point]. Take `Cc1nn(C)c(C(=O)NC2C3CC4CC(C3)CC2C4)c1Cl` (stereo unspecified): the AC50 under setting [2] was 35.5 µM [rising, single point].
